{"source": "the supplement of paper PMC8728848", "binders": {"B1": {"name": "CcfD (Bacteroides vulgatus), A6KYX8 (protein)", "chain": "MKYKNYFKSIIYLALGAFTLGSCEDFLDRQEDEKLTFDKIWESRNTTQQYWLNAMSFLPNENGSLQGDTEPYLGASDECTIAYDRQYRWINFGTWNPSQVPYYKMDHYYKGIRECNIFLQNVYKCSDPLVTKDQLDEWYWQTRFARAYYYFLMMRDYGPVFLLGDDLLDFTASTEELYRPRNTWDQCVNYVVSEMTQCAESGVVLQQSDLPAAKWGLATVGTCHAVISRLLLYSARPLFNGNKLYSTVKNPDAPDFPELSGVKLFPELDNTKWQKAAEAAKKLIDNPCYELYRAGNDNPYEDYYGVTHETWNKELIWTDRYNGLFSWGVGTVPTGVAGTAYGAVGPTQALVDAYAMNTGWYPITGYEADGTPIVEPLSGYELASELEKSSWIYPSGGWSNKADFEIEAPNMYKDREPRFYVTVFFGGNQWLHGNSATSISFAKGGNGNKSHDYPKSGYLCNRFYDHKLNSSEGQWGNITFPVFRLGEIYLNFIEAVLECKKNGVALDPSYEALAMEKWADLRKRAGLDPITSIYGQVSTEELIQLCRKERQIELAFERHRYFDTRTWMIATQTDNGKMYGMNTSCPLDAGMKGTETPDGFWERTAFETRVFQNKHYLYPFSQRELDRNKLLTQNYGW"}}, "assay_in_all_cases": "glycan array binding signal (z-score within array); higher = stronger binding", "conditions_in_all_cases": "glycan notation: IUPAC condensed, linker removed", "key": {"[1]": {"molecular_target": "GlcNAc(b1-3)Gal(b1-4)GlcNAc(b1-3)Gal(b1-4)GlcNAc(b1-3)Gal(b1-4)GlcNAc(b1-3)Gal(b1-4)GlcNAc(b1-2)[GlcNAc(b1-3)Gal(b1-4)GlcNAc(b1-3)Gal(b1-4)GlcNAc(b1-3)Gal(b1-4)GlcNAc(b1-3)Gal(b1-4)GlcNAc(b1-6)]Man(a1-6)[GlcNAc(b1-3)Gal(b1-4)GlcNAc(b1-3)Gal(b1-4)GlcNAc(b1-3)Gal(b1-4)GlcNAc(b1-3)Gal(b1-4)GlcNAc(b1-2)Man(a1-3)]Man(b1-4)GlcNAc(b1-4)[Fuc(a1-6)]GlcNAc", "in_short": "(§1)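 Glycan array data were curated from 3228 arrays in the Consortium for Functional Glycomics database and kept only where the protein sequence was available. Glycan names were converted to IUPAC-condensed notation, and columns mapping to the same glycan were averaged. The binding signal is a within-array Z-score, averaged across arrays of the same protein sequence at different concentrations or buffers and across linkers. Negative Z-scores can be read as non-binding.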"}, "[2]": {"molecular_target": "GlcNAc(b1-3)Gal(b1-4)GlcNAc(b1-3)Gal(b1-4)GlcNAc(b1-3)GalNAc", "in_short": "as §1"}, "[3]": {"molecular_target": "GlcNAc(b1-3)Gal(b1-4)GlcNAc(b1-3)GalNAc", "in_short": "as §1"}, "[4]": {"molecular_target": "GlcNAc(b1-3)Gal(b1-4)GlcNAc(b1-3)[GlcNAc(b1-3)Gal(b1-4)GlcNAc(b1-3)]GalNAc", "in_short": "as §1"}, "[5]": {"molecular_target": "GlcNAc(b1-3)Gal(b1-4)GlcNAc(b1-6)[Gal(b1-3)]GalNAc", "in_short": "as §1"}, "[6]": {"molecular_target": "GlcNAc(b1-3)Gal(b1-4)GlcNAc(b1-6)[GlcNAc(b1-3)Gal(b1-3)]GalNAc", "in_short": "as §1"}, "[7]": {"molecular_target": "GlcNAc(b1-3)Gal(b1-4)GlcNAc(b1-6)[GlcNAc(b1-3)]Gal(b1-4)GlcNAc", "in_short": "as §1"}, "GlcNAc(b1-3)GalNAc": {"molecular_target": "GlcNAc(b1-3)GalNAc", "in_short": "as §1"}, "GlcNAc(b1-3)Man": {"molecular_target": "GlcNAc(b1-3)Man", "in_short": "as §1"}, "[8]": {"molecular_target": "GlcNAc(b1-3)[GlcNAc(b1-4)][GlcNAc(b1-6)]GlcNAc", "in_short": "as §1"}, "[9]": {"molecular_target": "GlcNAc(b1-3)[GlcNAc(b1-6)]Gal(b1-4)GlcNAc", "in_short": "as §1"}, "[10]": {"molecular_target": "GlcNAc(b1-3)[GlcNAc(b1-6)]GalNAc", "in_short": "as §1"}, "[11]": {"molecular_target": "GlcNAc(b1-4)Gal(b1-4)GlcNAc", "in_short": "as §1"}, "GlcNAc(b1-4)GlcNAc": {"molecular_target": "GlcNAc(b1-4)GlcNAc", "in_short": "as §1"}, "[12]": {"molecular_target": "GlcNAc(b1-4)GlcNAc(b1-4)GlcNAc", "in_short": "as §1"}, "[13]": {"molecular_target": "GlcNAc(b1-4)GlcNAc(b1-4)GlcNAc(b1-4)GlcNAc(b1-4)GlcNAc", "in_short": "as §1"}, "[14]": {"molecular_target": "GlcNAc(b1-4)GlcNAc(b1-4)GlcNAc(b1-4)GlcNAc(b1-4)GlcNAc(b1-4)GlcNAc", "in_short": "as §1"}, "[15]": {"molecular_target": "GlcNAc(b1-4)[GlcNAc(b1-6)]GalNAc", "in_short": "as §1"}, "[16]": {"molecular_target": "GlcNAc(b1-6)Gal(b1-4)GlcNAc", "in_short": "as §1"}, "GlcNAc(b1-6)GalNAc": {"molecular_target": "GlcNAc(b1-6)GalNAc", "in_short": "as §1"}, "[17]": {"molecular_target": "GlcNAc6S(b1-3)Gal(b1-4)GlcNAc", "in_short": "as §1"}, "Kdn(a2-3)Gal(b1-3)GalNAc": {"molecular_target": "Kdn(a2-3)Gal(b1-3)GalNAc", "in_short": "as §1"}, "Kdn(a2-3)Gal(b1-3)GlcNAc": {"molecular_target": "Kdn(a2-3)Gal(b1-3)GlcNAc", "in_short": "as §1"}, "Kdn(a2-3)Gal(b1-4)Glc": {"molecular_target": "Kdn(a2-3)Gal(b1-4)Glc", "in_short": "as §1"}, "Kdn(a2-3)Gal(b1-4)GlcNAc": {"molecular_target": "Kdn(a2-3)Gal(b1-4)GlcNAc", "in_short": "as §1"}, "[18]": {"molecular_target": "Kdn(a2-3)Gal(b1-4)[Fuc(a1-3)]GlcNAc", "in_short": "as §1"}, "Kdn(a2-6)Gal(b1-4)GlcNAc": {"molecular_target": "Kdn(a2-6)Gal(b1-4)GlcNAc", "in_short": "as §1"}, "[19]": {"molecular_target": "Man(a1-2)Man(a1-2)Man(a1-3)Man", "in_short": "as §1"}, "[20]": {"molecular_target": "Man(a1-2)Man(a1-2)Man(a1-6)[Man(a1-3)]Man", "in_short": "as §1"}, "Man(a1-2)Man(a1-3)Man": {"molecular_target": "Man(a1-2)Man(a1-3)Man", "in_short": "as §1"}}, "note": "The list shows a part of the results.", "data": [{"binder": "B1", "values": [{"measurement": "glycan array binding signal (z-score)", "setting": "[1]", "result": 0.069}, {"measurement": "glycan array binding signal (z-score)", "setting": "[2]", "result": -0.846}, {"measurement": "glycan array binding signal (z-score)", "setting": "[3]", "result": -0.754}, {"measurement": "glycan array binding signal (z-score)", "setting": "[4]", "result": -0.708}, {"measurement": "glycan array binding signal (z-score)", "setting": "[5]", "result": -0.393}, {"measurement": "glycan array binding signal (z-score)", "setting": "[6]", "result": -0.322}, {"measurement": "glycan array binding signal (z-score)", "setting": "[7]", "result": -0.566}, {"measurement": "glycan array binding signal (z-score)", "setting": "GlcNAc(b1-3)GalNAc", "result": -0.332}, {"measurement": "glycan array binding signal (z-score)", "setting": "GlcNAc(b1-3)Man", "result": -0.81}, {"measurement": "glycan array binding signal (z-score)", "setting": "[8]", "result": 2.41}, {"measurement": "glycan array binding signal (z-score)", "setting": "[9]", "result": -1.08}, {"measurement": "glycan array binding signal (z-score)", "setting": "[10]", "result": -0.942}, {"measurement": "glycan array binding signal (z-score)", "setting": "[11]", "result": -0.856}, {"measurement": "glycan array binding signal (z-score)", "setting": "GlcNAc(b1-4)GlcNAc", "result": -0.663}, {"measurement": "glycan array binding signal (z-score)", "setting": "[12]", "result": -0.678}, {"measurement": "glycan array binding signal (z-score)", "setting": "[13]", "result": 0.186}, {"measurement": "glycan array binding signal (z-score)", "setting": "[14]", "result": -0.658}, {"measurement": "glycan array binding signal (z-score)", "setting": "[15]", "result": -0.571}, {"measurement": "glycan array binding signal (z-score)", "setting": "[16]", "result": -0.307}, {"measurement": "glycan array binding signal (z-score)", "setting": "GlcNAc(b1-6)GalNAc", "result": -0.134}, {"measurement": "glycan array binding signal (z-score)", "setting": "[17]", "result": -0.744}, {"measurement": "glycan array binding signal (z-score)", "setting": "Kdn(a2-3)Gal(b1-3)GalNAc", "result": 1.1}, {"measurement": "glycan array binding signal (z-score)", "setting": "Kdn(a2-3)Gal(b1-3)GlcNAc", "result": -0.388}, {"measurement": "glycan array binding signal (z-score)", "setting": "Kdn(a2-3)Gal(b1-4)Glc", "result": 1.84}, {"measurement": "glycan array binding signal (z-score)", "setting": "Kdn(a2-3)Gal(b1-4)GlcNAc", "result": -0.719}, {"measurement": "glycan array binding signal (z-score)", "setting": "[18]", "result": 0.536}, {"measurement": "glycan array binding signal (z-score)", "setting": "Kdn(a2-6)Gal(b1-4)GlcNAc", "result": -0.566}, {"measurement": "glycan array binding signal (z-score)", "setting": "[19]", "result": -0.017}, {"measurement": "glycan array binding signal (z-score)", "setting": "[20]", "result": -0.139}, {"measurement": "glycan array binding signal (z-score)", "setting": "Man(a1-2)Man(a1-3)Man", "result": 0.257}]}]}
